Out of some 52,000 sequences screened, about 210 (0.4%) were called active.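 The calls were made as follows: active = gene whose silencing raises cell survival under the drug, median off-target-corrected z-score across its silencing RNAs 2 or more; inactive = the rest.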 The list shows a part of the results.
Test: Resistance to Poly (ADP-Ribose) Polymerase inhibitor: Gene Identification via Genome-wide siRNA Screen
Settings: mouse BRCA2 R2336H ES cells, olaparib, CellTiter-Glo viability; active compounds read high
Outline: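 Genome-wide siRNA screen (3 siRNAs/gene, 20 nM) in mouse ES cells carrying hypomorphic BRCA2 R2336H; olaparib 500 nM added 48 h post-transfection, CellTiter-Glo viability 72 h later. Normalized to plate-median negative control; MAD z-scores, gene median, seed-adjusted.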

Row | Sequence | z-score
1 | CGUGUAAACGCAAUUAAAATT against BC066107 | inactive: 0.132
2 | GGUGUUAUUUUGAAGAAGATT against Arhgef10 | inactive: 0.399
3 | GGAGCUGAAAAUUGUUACCTT against Tpm2 | inactive: -0.489
4 | GGAUGGAAUUACAAGGGUUTT against Kif1b | inactive: -0.549
5 | GGCUUAUCACAGGAAGAUCTT against Apg4c | inactive: 1.48
6 | GGUCCUCUGGUUCAACAUUTT against Olfr638 | inactive: -0.157
7 | GCCUUUUUACAGCUCAGGUTT against LOC434179 | inactive: -0.262
8 | GGUAUUCUUCCUCCAUGGGTT against Olfr638 | inactive: 0.359
9 | GGAUAAGCAGUUCUCAAGCTT against Mef2a | inactive: 1.1
10 | GGAAGCAUCCAGUGCUAUUTT against Kremen2 | inactive: 0.563
11 | GGGUGUUUUUAAGUGUCCCTT against A630056B21Rik | inactive: 1.39
12 | GGACAGACUGAUUUACAAATT against 5330421F07Rik | inactive: 0.523
13 | GGCAACAGCACCAGAAGGATT against Ccl19 | inactive: -1.04
14 | CGAAGGGAUUGAUUUGACUTT against Kars | inactive: -2.06
15 | GGUGAUAAGAUACAUAUCATT against Usp9x | inactive: -0.644
16 | GGUCCUCAAGAUCUUUGUGTT against Extl1 | inactive: -0.313
17 | GGAGAAAAAUGAAAGAUCUTT against Grb14 | inactive: 1.54
18 | GGCCUCGUCAUUUUACAGGTT against Mcee | inactive: -0.412
19 | GCAGUACUAAACCAGAUAUTT against 1200014J11Rik | inactive: -0.835
20 | GCUUAAAAUUCGGUAAGGATT against Il17r | inactive: -0.191
21 | GGGAUACCAUUAAUUAAAGTT against 3632451O06Rik | inactive: 0.122
22 | GGAGUAGAAUGUAUUCAGATT against Ccng1 | inactive: -0.0906
23 | GGAUGAGGAAAAUGUGUCUTT against 2410012C07Rik | inactive: 0.563
24 | GGUCCCAGUCAUUAUCCACTT against Gdap1l | inactive: 1.31
25 | GGACUUGCUUUCUGAGAACTT against Zfp319 | inactive: -1.09
26 | GGCACAUCACUGCUUACCUTT against Rce1 | inactive: -2.05
27 | CCCUGUGUACAGAGAAAGGTT against Pabpnl1 | inactive: -2.07

Row | Sequence | z-score
28 | GCCUUCCAUACAUUUAACATT against Olfr311 | inactive: -0.783
29 | GGCCAUGUUGAGUAAGAAATT against Mmrn2 | inactive: -1.62
30 | GGCGAAUGCGCUUCUGAUATT against BC053393 | inactive: 0.839
31 | GCACUGACAUCAAAAAUACTT against Ddx31 | inactive: 0.995
32 | GGCAAAUGUGUUAUGUUUUTT against Rnf11 | inactive: 0.664
33 | CCAUCCAGCUUUCAUUAAATT against Hem1 | inactive: 0.217
34 | GGUGCUGCAUGUGAAGAUGTT against Crebl1 | inactive: -0.29
35 | GGAACAAUUGGUUUGUUAATT against Ms4a6b | inactive: 1.37
36 | GGAUGCAAGCAAAAUGCAGTT against Gpm6b | inactive: 1.09
37 | GCAUCGUGCAGAAUUUUGCTT against Ephb1 | inactive: 1.39
38 | CCCUACUGUAUUAGAAAACTT against BC048355 | inactive: 0.676
39 | GCUAGGAGACCUCUUCAUGTT against Mkrn2 | inactive: 1.1
40 | GGGAUCAAAGCUUUUUUAGTT against Mad2l1 | inactive: 0.283
41 | CGCUUAAAACAUUUGGUUATT against Rnf170 | inactive: 0.447
42 | CCUCUUUUUCUGUUACCGCTT against Oatl1 | inactive: 1.03
43 | GGCUGUUGACAUUUUACAATT against B130016L12Rik | inactive: -2.74
44 | GGAUUCCCUGUAUGCCCAATT against Rpl36al | inactive: -0.128
45 | GGAAGUCAUUGCUGUCGUCTT against Mov10l1 | inactive: -0.224
46 | GGAAGUUGACACCAAAACCTT against Magel2 | inactive: 0.407
47 | GGAGUUUUCAUGCCUACAATT against 2310011G06Rik | inactive: 0.243
48 | GAGCUUGUUCACAUGUUUCTT against Tnfsf12 | inactive: -0.0848
49 | GGCUCAGCACAAUGACUCUTT against Grem1 | inactive: 1.03
50 | CCCAGCUUAUACUCUUAAGTT against Fez1 | inactive: 0.454
51 | GGUCAUGGAUUGCUUUUUATT against 1110032N12Rik | inactive: -0.692
52 | GCUCUUGGUGGAUCAUCAATT against Foxo3 | inactive: -0.31
53 | GCCUUCCUCCGUUAAUCCATT against Ankrd25 | inactive: -0.169
54 | GCAACUGAGUCGUAAGUUCTT against Tbc1d12 | inactive: -0.186

For convenience, part of the list above:
Row | Sequence | z-score
41 | CGCUUAAAACAUUUGGUUATT against Rnf170 | inactive: 0.447
42 | CCUCUUUUUCUGUUACCGCTT against Oatl1 | inactive: 1.03

(next part)

Row | Sequence | z-score
55 | CGGUGUAAGUCUGGCUUUGTT against BC027828 | inactive: 0.155
56 | CCUUCCUGUCCAUGUACCUTT against Olfr412 | inactive: 1.37
57 | GCCUAGAUGACCUCAAUGUTT against AI450540 | inactive: -0.756
58 | CCUUAGGUCUAAGUAAUCUTT against Dnase1l1 | inactive: -0.164
59 | CGCAAUAGUCUUAAACCCUTT against Lpxn | inactive: -0.102
60 | CCACCUAUCCUAUUGACGATT against Tsta3 | inactive: 1.29
61 | GGGAUACUUGCUCAAUGAGTT against Irf1 | inactive: 1.12
62 | GCUAUGGGUAAACUUUUUGTT against Olfr354 | inactive: 0.196
63 | GGUUUCAUGAAAGAGGAGCTT against Cbs | inactive: -0.85
64 | GCUAUGCUUAUUGUAUUGATT against Fut11 | inactive: 1.16
65 | CCACACAUUUAAAAUGGCGTT against Ctsh | inactive: 0.244
66 | GCUCGAACAUCUCUUGGUCTT against Capn9 | inactive: 1.68
67 | CCAUUGAUAUUAAAUCGCUTT against Pik3cg | inactive: 1.07
68 | GGCUAUUAACAUGCAUAGATT against Ear6 | inactive: -0.519
69 | GGUUAUGCCUUCAGUGAAGTT against Prep | inactive: 0.51
70 | GCUCCAAAUCAGUGUGCAATT against LOC209380 | inactive: -3.16
71 | GCCUUAUGGUUUUGUAUUUTT against Nap1l1 | inactive: -2.2
72 | GGUCUCAUUGUUGGAAGAGTT against 4930433N12Rik | inactive: 0.798
73 | GGAUGCACAUUCCUCUACATT against AI586120 | inactive: 0.621
74 | GGCAAACUUUAACUCCACATT against Fastk | inactive: -0.463
75 | CCAUUACAUCCAUUUGAUUTT against 1700003M02Rik | inactive: 1.6
76 | GGAUAAUGAAGAAUGCCAATT against Abca4 | inactive: 1.67
77 | CCAACAGGAGAUACAAUUATT against Pclo | inactive: -2.13
78 | GGUGAGAUAGGUCUAGUUGTT against Col10a1 | inactive: 1.08
79 | CCCUACAAACCAUCUGGUUTT against Aga | inactive: -0.416
80 | GGGUCUUCACAUAUCUCAUTT against Tep1 | inactive: 2.83
81 | GGAAGACUGGUACACAUAATT against 1200015A22Rik | inactive: -2.36

Random excerpt: two entries already listed
Row | Sequence | z-score
70 | GCUCCAAAUCAGUGUGCAATT against LOC209380 | inactive: -3.16
75 | CCAUUACAUCCAUUUGAUUTT against 1700003M02Rik | inactive: 1.6

The results go on.

Row | Sequence | z-score
82 | GCUUGUGGCCAUAGCAGUUTT against A730024F05Rik | inactive: 2.27
83 | GGAGUACAUCUUAGACAAATT against Tram2 | inactive: -1.97
84 | GCGCAUGAAUUCGUGCAACTT against Hoxb6 | inactive: 1.97
85 | GCUAGAAAUGAGGUGCGCCTT against Mapkapk5 | inactive: -0.137
86 | GGUUAGUUGGCAAGUGUAATT against Cd1d1 | inactive: 0.063
87 | GGAUUAUGACUCCUAGCGCTT against Drap1 | inactive: -0.181
88 | CAGCAGUGCACAGAAAUGGTT against Olfr12 | inactive: -1.21
89 | GCGAAUGAUAGAUCCUGUCTT against Stx17 | inactive: -0.979
90 | CCGUGGGUUUUUUGAAUCUTT against Slc6a1 | inactive: 0.363
91 | GGACAACACCUAUUUAGUGTT against Cdk5rap3 | inactive: -0.209
92 | GGACAUUCAUGGUGAUAGCTT against Sfrs14 | inactive: 0.321
93 | GGCGAUGAGAAGUUUGAAUTT against Sbds | inactive: -0.239
94 | GGGAAAUGUUGUAGUAGAUTT against Rarsl | inactive: 1.17
95 | GGCUGAAGACUUGAAAACGTT against Tipin | inactive: 0.0451
96 | GCUUGUUAAAAUUGGAAAGTT against Kif11 | inactive: -1.98
97 | GGUAACAACUUUUAAGCCUTT against Prps2 | inactive: 0.543
98 | GCCACCUAAUUGAUUUCCGTT against Ggtl3 | inactive: -0.0288
99 | CGGCAACAACAUCACUCGGTT against Slit1 | inactive: -0.176
100 | CCCUUUCACAAAUAGCACATT against Crb3 | inactive: -0.263
101 | CGUAGCAAUCAACAAUAUCTT against Pcdhb17 | inactive: -0.426
102 | GCUAUUCACUUGAUUCAUGTT against Sdad1 | inactive: -2.45
103 | GGGUUGUCCAAUGUGAAGGTT against 0610011F06Rik | inactive: -0.389
104 | GGCCUUUAACAGUGUUGAGTT against Plag1 | inactive: 1.68
105 | GGGAUUUCUGCACACCCUATT against A530053G22Rik | inactive: -0.617

Taken from above:
For z-score, GGUAACAACUUUUAAGCCUTT against Prps2 shows inactive: 0.543
For z-score, GGCCUUUAACAGUGUUGAGTT against Plag1 shows inactive: 1.68

Reference: PubChem BioAssay AID1347423 (Functional Genomics Laboratory (NCATS/FGL), 2020)
